Source: US7977082B2, “Isomaltulose synthases, polynucleotides encoding them and uses therefor” (The University of Queensland of St. Lucia, priority 2001, dated 2011)

Assay: Total protein and SI protein contents in E. coli cells expressing SI genes

Substance: Erwinia rhapontici: sucrose isomerase cloned from Erwinia rhapontici WAC2928, SEQ ID NO: 2, mature polypeptide SEQ ID NO: 4
- Sucrose isomerase content (E. coli cells with SI gene, including background of approximately 2% proteins that migrated with the SI): 12.2 ± 1.5 % total proteins
- Total protein content (E. coli cells with SI gene, means ± standard errors, 3 replications): 15.97 ± 1.63 % dry weight
- expression level of sucrose isomerase, of total protein (E. coli, same vector, promoter, start codon and termination sequences): around 10%
